# Reference: PubChem BioAssay (EPA / NIEHS)
# Sequences of proteins named here, by UniProt entry; tags and fusion partners are left off. A change or cut given only in a name is not applied to a line headed by its entry.
# UniProt P04637, whole entry, looked up: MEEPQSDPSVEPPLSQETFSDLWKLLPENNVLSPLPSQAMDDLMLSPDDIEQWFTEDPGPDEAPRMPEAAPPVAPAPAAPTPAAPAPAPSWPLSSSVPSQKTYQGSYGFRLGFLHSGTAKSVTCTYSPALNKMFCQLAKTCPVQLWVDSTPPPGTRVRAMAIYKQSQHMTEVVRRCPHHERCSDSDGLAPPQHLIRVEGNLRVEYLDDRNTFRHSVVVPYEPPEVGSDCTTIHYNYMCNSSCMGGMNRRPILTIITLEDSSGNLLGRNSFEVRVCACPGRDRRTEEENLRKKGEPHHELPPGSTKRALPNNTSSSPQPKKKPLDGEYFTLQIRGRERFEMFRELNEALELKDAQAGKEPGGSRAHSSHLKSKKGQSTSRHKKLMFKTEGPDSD
# UniProt P10827: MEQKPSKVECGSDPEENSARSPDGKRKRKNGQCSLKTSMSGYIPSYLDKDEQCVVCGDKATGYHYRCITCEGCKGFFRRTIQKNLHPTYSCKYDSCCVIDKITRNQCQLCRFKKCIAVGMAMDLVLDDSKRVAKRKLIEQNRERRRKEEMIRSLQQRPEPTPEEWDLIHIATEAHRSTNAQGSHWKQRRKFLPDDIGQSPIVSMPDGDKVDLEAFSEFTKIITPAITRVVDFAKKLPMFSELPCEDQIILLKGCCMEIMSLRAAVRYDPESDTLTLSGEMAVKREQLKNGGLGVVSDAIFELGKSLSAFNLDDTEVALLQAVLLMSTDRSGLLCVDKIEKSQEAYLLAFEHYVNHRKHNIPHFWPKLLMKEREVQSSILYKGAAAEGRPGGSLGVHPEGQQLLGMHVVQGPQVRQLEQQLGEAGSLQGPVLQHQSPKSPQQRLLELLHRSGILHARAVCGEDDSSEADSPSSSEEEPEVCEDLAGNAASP
# UniProt P10828: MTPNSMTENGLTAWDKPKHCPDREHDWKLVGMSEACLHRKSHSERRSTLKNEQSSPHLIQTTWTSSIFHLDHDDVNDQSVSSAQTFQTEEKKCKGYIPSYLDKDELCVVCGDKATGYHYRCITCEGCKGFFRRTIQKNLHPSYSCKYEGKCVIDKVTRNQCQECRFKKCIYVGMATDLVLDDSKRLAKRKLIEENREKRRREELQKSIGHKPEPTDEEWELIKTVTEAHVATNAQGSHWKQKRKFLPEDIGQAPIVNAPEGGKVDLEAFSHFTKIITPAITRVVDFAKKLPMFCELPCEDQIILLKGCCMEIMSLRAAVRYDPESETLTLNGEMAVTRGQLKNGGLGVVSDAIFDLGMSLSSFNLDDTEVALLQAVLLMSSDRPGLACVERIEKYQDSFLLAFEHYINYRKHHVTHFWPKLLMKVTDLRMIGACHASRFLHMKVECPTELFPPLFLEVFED
# “And” between values parts separate entries of the source, which are not always exact repeats. Identical values can stand only once. This list was built around the results that the source calls inconclusive (neither active nor inactive); the mix of calls is not that of the screen. For some of these results: Where the call is inconclusive, the potency comes from a doubtful curve fit. Some structures have more than one record in an assay (separate samples or runs), and their calls can disagree. The source made the active and inactive calls. Rule for the calls: active = hit-call score of the fitted dose curve at least 0.9, where 1 is the maximum; inconclusive = response in the unintended direction; inactive = score below 0.9.
# Assays:
# [1] = TOX21_p53_BLA_p3_viability: Viability Assessment in the Tox21 HCT-116 p53 Agonism Beta-lactamase Assay, Phase 3 (AID 2283593);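 note: cells exposed to compound for 16 h before reading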
# Summary of the method: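 HCT-116 cells (4000/well) rested 5 h at 37C, then got DMSO compounds by pin tool (217-fold dilution) for 16 h at 37C, 5% CO2. After the bla read, CellTiter-Glo was added and luminescence read at 30 min, room temperature.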
# [2] = TOX21_p53_BLA_p4_viability: Viability Assessment in the Tox21 HCT-116 p53 Agonism Beta-lactamase Assay, Phase 4 (AID 2283597);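 note: hits lower the luminescence signal meaning cytotoxicity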
# Summary of the method: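 We seeded HCT116 p53 reporter cells at 4000/well and waited 5 h. We then added compounds in DMSO at a 217-fold dilution and incubated for 16 h. Viability was read as CellTiter-Glo luminescence after 30 min at RT.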
# [3] = target: Cellular tumor antigen p53 (Homo sapiens) (UniProt P04637); assay: TOX21_p53_BLA_p3_ratio: Tox21 HCT-116 p53 Agonism Beta-lactamase Assay, Ratio, Phase 3 (AID 2283596)
# Summary of the method: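 HCT116 p53-bla cells (4000/well) given compound in DMSO (217-fold dilution) after 5 h, incubated 16 h at 37C. CCF4-AM substrate 2 h at room temperature; 460/530 nm emission ratio, gain fitted against DMSO.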
# [4] = TOX21_p53_BLA_p5_viability: Viability Assessment in the Tox21 HCT-116 p53 Agonism Beta-lactamase Assay, Phase 5 (AID 2283600)
# Summary of the method: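 Compounds, pinned from DMSO at 217-fold dilution, were left on the cells for 16 h. The viability endpoint was ATP content measured by CellTiter-Glo luminescence, where falling signal reflects cytotoxicity.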
# [5] = target: Cellular tumor antigen p53 (Homo sapiens) (UniProt P04637); assay: TOX21_p53_BLA_p5_ratio: Tox21 HCT-116 p53 Agonism Beta-lactamase Assay, Ratio, Phase 5 (AID 2283599)
# Summary of the method: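 HCT-116 cells carrying a p53-inducible beta-lactamase reporter were seeded at 4000 cells/well and dosed after 5 h with compound in DMSO (217-fold dilution). After 16 h at 37C, CCF4-AM substrate was added for 2 h, and the 460/530 nm emission ratio was scored as gain-of-signal versus DMSO.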
# [6] = target: Cellular tumor antigen p53 (Homo sapiens) (UniProt P04637); assay: TOX21_p53_BLA_p4_ratio: Tox21 HCT-116 p53 Agonism Beta-lactamase Assay, Ratio, Phase 4 (AID 2283601)
# Summary of the method: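 HCT116 cells carrying an inducible beta-lactamase reporter were plated at 4000 cells/well, rested 5 h, then exposed to compounds in DMSO (217-fold dilution) for 16 h at 37C. CCF4-AM substrate was loaded 2 h at room temperature; 460/530 nm emission ratio scored gain-of-signal versus DMSO.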
# [7] = target: Cellular tumor antigen p53 (Homo sapiens) (UniProt P04637); assay: TOX21_p53_BLA_p2_ratio: Tox21 HCT-116 p53 Agonism Beta-lactamase Assay, Ratio, Phase 2 (AID 2283592)
# Summary of the method: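 In this cell-based reporter format, HCT116 cells were dosed with chemicals delivered from DMSO by 217-fold dilution and incubated 16 h at 37C. Emission at 460 and 530 nm after 2 h CCF4-AM loading provided the ratio, fitted upward versus DMSO.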
# THRA (gene 7067) = THRA (gene 7067) (UniProt P10827); assay: TOX21_TRA_COA_Antagonist_Followup_ratio: Tox21 Thyroid Hormone Receptor alpha Antagonism through Coactivator Recruitment Follow-Up Assay, Ratio (AID 2283953)
# Summary of the method: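 520:495 nm emission ratio (excitation 340 nm) reports fluorescein-SRC-2 peptide recruitment to GST-TRα LBD by TR-FRET with Tb anti-GST antibody. Values were normalized to DMSO (0%) and T3 control wells (100%); loss of signal indicated antagonism.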
# THRB (gene 7068) [8] = target: THRB (gene 7068) (UniProt P10828); assay: TOX21_TRB_BLA_Antagonist_Followup_ratio: Tox21 Thyroid Hormone Receptor beta Antagonism Beta-lactamase (BLA) Follow-Up Assay, Ratio (AID 2283958)
# Summary of the method: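 HEK293T cells with a GAL4-TRb LBD fusion and UAS-bla reporter, 3,000 cells/well in phenol red-free DMEM with 2% charcoal-stripped FBS. Exposed 18 h at 37C to 11 concentrations in triplicate; CCF4 460:530 nm ratio after 2 h, DMSO-referenced.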
# THRB (gene 7068) [9] = target: THRB (gene 7068) (UniProt P10828); assay: TOX21_TRB_COA_Antagonist_Followup_ratio: Tox21 Thyroid Hormone Receptor beta Antagonism through Coactivator Recruitment Follow-Up Assay, Ratio (AID 2283967)
# Summary of the method: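 Cell-free TR-FRET coactivator recruitment with GST-tagged TRβ LBD (5.0 nM) and fluorescein-labeled SRC-2 peptide (200 nM) detected by terbium anti-GST antibody (2 nM). The 520:495 nm emission ratio was normalized to DMSO (0%) and T3 (100%).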
compound,measurement,setting,value
c1ccc2sc(SSc3nc4ccccc4s3)nc2c1,outcome,[1],inactive
same,AC50,[2],inconclusive: 23 µM
CCNc1nc(NC(C)CC)nc(OC)n1 (configuration not stated),AC50,[1],inconclusive: 46.1 µM
same,AC50,[3],inconclusive: 76.1 µM
same,AC50,[2],inconclusive: 46.1 µM
same,AC50,[4],active: 0.00012 µM
C[C@]12CC[C@@H]3c4ccc(O)cc4CC[C@H]3[C@@H]1CC[C@@H]2OP(=O)(O)O,AC50,[1],inconclusive: 6.1 µM
same,AC50,[5],inconclusive: 23 µM
same,AC50,[4],inconclusive: 23 µM
same,AC50,[6],inconclusive: 23 µM
O=C=Nc1ccc(Cl)c(Cl)c1,AC50,[3],inconclusive: 45.5 µM
CC(S)C(C)S (configuration not stated),outcome,[1],inactive
same,AC50,[2],inconclusive: 48.4 µM
same,outcome,[6],inactive
CCN(C=O)CC,outcome,[7],inactive
same,outcome,[3],inactive
same,AC50,[5],inconclusive: 47.1 µM
same,AC50,[6],inconclusive: 47.1 µM
O=C(CCCCCCC(=O)Nc1ccccc1)NO,AC50,[7],active: 420 nM and active: 686 nM
same,AC50,[3],active: 0.874 µM
same,AC50,[2],active: 4.47 µM and active: 7.11 µM
same,AC50,[5],active: 1.08 µM and active: 842 nM
same,AC50,[4],inconclusive: 23 µM
same,AC50,[6],active: 904 nM and active: 534 nM
same,AC50,THRA (gene 7067),inconclusive: 19.2 µM
same,outcome,THRB (gene 7068) [8],inactive
same,outcome,THRB (gene 7068) [9],inactive
O=C1c2ccccc2C(=O)N1CO,outcome,[1],inactive
same,AC50,[3],inconclusive: 46.6 µM
same,AC50,[2],inconclusive: 6.61 µM
